The values are deposited in ChEMBL (CHEMBL3988442, “University of Dundee, Small-Polar-MMV Screening Library” (2021)).

Values are the deposited “Percent Effect”, in %. How 0% and 100% were set is not recorded. Most values in the screen are low, and negative values occur. Compounds were drawn at random from those tested, without regard to their results. Two or more numbers in one place are separate tests of the same structure; such repeats can differ widely.

A: 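Phenotypic screen: M. tuberculosis growth, glucose 7H9 medium, 3 days; the read-out is not stated. Compounds at 50 µM. Higher reads as more growth inhibition (inferred: compounds with an IC50 in retests scored well above the rest). Of about 69,000 compounds tested this way, about 760 (1.1%) reached 50% or more in at least one test.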
B: 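Whole-cell growth test on Mycobacterium tuberculosis, read after 4 days in a medium based on cholesterol and the lipid DPPC; the read-out is not stated. Concentration: 50 µM. Higher reads as more growth inhibition (inferred: compounds with an IC50 in retests scored well above the rest). Of about 69,000 compounds tested this way, about 370 (0.54%) reached 50% or more in at least one test.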

structure | A | B
COc1cc(C(=O)NS(=O)(=O)c2cncc(Br)c2)cc(OC)c1C | 8.051 & -12.79 | 7.427
O=C(NC1CC1)N(CCc1ccccc1)C1CCOC1 (stereo not drawn) | 1.239 & -23.51 | -9.446
Cc1nccn1-c1cc(CNC(=O)c2ccnc(N(C)C)c2)ccn1 | 20.57 | 3.75 & 2.439
Cc1ccc(CN2CC[C@H](c3nc4cccc(C(N)=O)c4[nH]3)C2)cc1 | -34.6 & -21.05 | -16.11
CC(C)(C)CCCC(=O)NS(=O)(=O)CC1CC1 | -0.7754 | -3.492
CC(c1cccnc1)N1CCN(CCO)CC1 (stereo not drawn) | 2.301 | -17.02
N#Cc1cccc(N2CC3(CCN(C(=O)C4CC=CC4)C3)CC2=O)c1 (stereo not drawn) | -29.65 | -12.31
O=C1CCC(C(=O)Nc2ccc(=O)n(Cc3ccc(Cl)c(Cl)c3)c2)N1 (stereo not drawn) | -5.736 | 6.094
O=C(NCc1nnc2n1CCC2)c1ccc(Br)s1 | -8.985 | -3.622
[H][C@@]12CCN(Cc3cccc4ccccc34)C[C@]1(c1nnc(C)o1)CCO2 | 15.1 | -12.13
Cc1cccc(N2CCN(CCNC(=O)C(C)n3cncn3)CC2)c1 (stereo not drawn) | 12.25 | -6.675
CCN(CC)S(=O)(=O)c1ccc2c(c1)N(Cc1cccnc1)C(=O)CS2 | 4.024 | 7.223
COc1cc2c(cc1OC)C(=O)C(Sc1nnnn1C)C2 (stereo not drawn) | 9.889 | -0.02966
COc1ccc(CC(=O)NCCn2nc3ccccn3c2=O)cc1 | -20.38 | -17.78
O=C(C1CCOC1)N1CCc2ncc(CNc3ccccn3)n2CC1 (stereo not drawn) | -14.99 | -10.21
NC(=O)CN1CCCN(C(=O)c2ccc(SC(F)F)cc2)CC1 | -0.5947 | -4.671 & -4.522
Cc1[nH]c(=O)c(C#N)cc1C(=O)N1C[C@@H](CN2CCCC2)C[C@H](CO)C1 | -22.95 | 4.545
Cc1nc(C)n(C2CCCN(C(=O)CCOC(C)C)C2)n1 (stereo not drawn) | 10.54 | -25.53
Cc1cc(N2CCC(Cc3cnccn3)C2)ncn1 (stereo not drawn) | 2.523 | -0.751
CCOCC(=O)N1CCC(Cc2nnc(SC)n2C)CC1 | -2.767 | 7.593
CCn1nccc1C(=O)N1CCCCC1CCc1ccc(O)cc1 (stereo not drawn) | -47.8 | -24.3
COc1ccccc1CNC(=O)C1=NN(c2ccc(C)cc2)C(=O)CN1 | 17.61 | 12.69
Cc1cc(C2CCCCN2C(=O)c2ccsc2)nc2nccn12 (stereo not drawn) | -1.351 | 21.07
Cc1ccc2c(c1)C(=O)NCC1(CCN(C(=O)c3csc(C)c3)CC1)O2 | 7.878 | -2.56
Fc1ccc(-c2nc(CNC3CCc4ncnn4C3)cs2)cc1 (stereo not drawn) | 4.226 | -0.4429
CSCC(C)(O)CNC(=O)c1cccc(Cl)c1Cl (stereo not drawn) | 9.5 | -9.241
Cc1nc2ccccc2nc1CN1CCCCC1Cn1cncn1 (stereo not drawn) | 20.35 | 6.416
O=C(O)C(F)(F)F.[H][C@@]12C[C@H](C(=O)NC3CCC3)[C@@]([H])(CN(CC3CC3)C1)O2 | 12.04 | 7.096
Cc1ccc(CN2CC3(CCN(C(=O)c4cscn4)C3)C2)o1.O=C(O)C(F)(F)F | -6.804 | 10.89
NC(=O)NC(=O)CCSc1ccccc1Cl | -1.775 | 31.04
Cc1nc(NC2CC2)c2c(n1)c(C)nn2C | 9.041 & -2.976 | 22.69
O=C(CCn1cc(Cl)cn1)Nc1nncs1 | -2.394 | -19.04
COCC(=O)N1CCN(CCn2cccn2)c2nc(C)ccc2C1.O=C(O)C(F)(F)F | 10.92 | 4.368
Cc1ccc(CCC(=O)N2CCC(Nc3cccnn3)CC2)cc1 | -4.927 | 4.801
CCc1nccn1C1CCCN(C(=O)c2ccc3c(c2)nnn3C)C1 (stereo not drawn) | -0.9074 | 9.446
COC(=O)N1CCC(Nc2cccc(F)c2C(C)=O)CC1 | 18.68 | 4.569 & 5.06
O=C(COC1CCOC1)N(CC(F)F)c1cccc(Cl)c1 (stereo not drawn) | -5.9 & 9.583 | -5.965
c1cc(-c2nnc([C@H]3CCN(C4CCCCC4)C3)o2)ccn1 | 34.78 & 22.83 | 23.01
Cc1cc(C)cc(-n2ncc3c2CCCC3N)c1 (stereo not drawn) | 38.65 | 17.85
O=C(c1cc(-c2cccs2)nc2ccccc12)N1CCN(CCO)CC1 | -3.827 | 10.78
CC(=O)c1cccc(CN2CC(Oc3ccccc3C)C2)c1 | 5.664 & -15.93 | -0.3344
Cc1cnn(CCCOc2ccc3c(c2)OCO3)c1 | 37.46 & 27.76 | 35.24
O=c1cc(CN2CCCCC2c2cccc(F)c2)[nH]c2ncnn12 (stereo not drawn) | -21.16 | -24.39
Cc1ccnc(C(Nc2nccc(-c3ccc(C)nc3C)n2)C2CC2)c1 (stereo not drawn) | 9.742 | 1.101
COc1ccc(CN2CCOC3(CCCN(c4nnc(C)o4)C3)C2)cc1.O=C(O)C(F)(F)F (stereo not drawn) | -17.5 | -8.759
CSCc1cccc(S(=O)(=O)N2CCCCCC2)c1 | 35.43 | 3.807
Cc1cc(F)c(S(=O)(=O)NCCCN2CCC(O)CC2)cc1F | -58.46 | -21.51
CC(C)OCc1ncn2c1CN(Cc1ccoc1)CCC2.O=C(O)C(F)(F)F | 5.899 | -17.58
Cc1nc(C2CCCN2C(=O)c2ccc3c(c2)nc(C)n3C)no1 (stereo not drawn) | -2.931 | 7.835
c1cncc(OCCCNC2COc3ccccc3C2)c1 (stereo not drawn) | -2.469 & -0.8181 | 13.34
CCn1nc(C)c2ccn(CC(=O)NCCCOC)c(=O)c21 | 24.7 | 5.168
COCC1CN(C(=O)CNC(C)=O)Cc2ncnn2C1 (stereo not drawn) | -1.567 | -23.47
COc1ccc(CN2CCC3(CC2)CCN(CC2CC2)C3=O)cc1.O=C(O)C(F)(F)F | -8.177 | 12.52
CCN1CCN(C2CCN(CC(=O)NCC(F)(F)F)CC2)C1=O | 3.513 | -1.635
Cc1ccsc1-c1nccn1CCN(C)S(C)(=O)=O | -13.38 | -2.814
c1ccc2nc(N3CCCCC3)c(NCc3nnc4n3CCC4)nc2c1 | -2.016 | 6.353
Cc1c[nH]nc1C1CCCN1Cc1nccn1C.O=CO (stereo not drawn) | 13.8 | -17.79 & 12.44
CCCc1nnc(NC(=O)N2CCCC2c2ccncc2)s1 (stereo not drawn) | -35.28 | -26.9
CCc1nnc(Nc2cc(C)nc(C3CN(C(=O)C(C)C)CCO3)c2)s1 (stereo not drawn) | 12.64 | -19.75 & -23.46
CCc1cnc(N2CCN(Cc3ccno3)CC2)s1 | 15.37 | 8.126
Cc1cc(C)n(-c2cccc(NC(=O)N3CCC[C@@H]3CO)c2)n1 | -1.024 & -4.927 | 1.928
Cc1ccc(CC2CCCN2CC(=O)NCc2cccnc2)cc1 (stereo not drawn) | 11.28 & 14.98 | -2.117
Cc1nccc(C2CCCCN2Cc2ccccc2)n1 (stereo not drawn) | 4.992 | 3.409
COCCN1CCC(NCc2cccnc2)C1 (stereo not drawn) | -5.158 | -9.129
Cc1ccc(C(CNCC2CC2)N2CCOCC2)s1 (stereo not drawn) | -54.11 | -26.74 & -0.9672
CC1CCCN(C(=O)NCC(F)F)C1 (stereo not drawn) | -13.98 | -3.764
COc1cc(C)c(NC(=O)NCCn2cccc2)cc1OC | -21.76 | -8.373
CCc1ccccc1CN1CC[C@@H](NC(=O)c2cccnc2)[C@H](O)C1 | 2.061 & -0.6469 | -11.35
CCc1nnc2n1CCN(C(=O)c1ccc3[nH]nnc3c1)C2 | 18.23 | 17.36
O=C(CCCOc1ccccc1)N1CCCC1Cn1cccn1 (stereo not drawn) | -6.067 | 6.556
CC(C)C1CCCN1C(=O)c1ccc(-n2ncc(C#N)c2N)cc1 (stereo not drawn) | 34.24 | -3.852
CN(CC(=O)N1CCN(c2ccccc2F)CC1)c1cnccn1 | -2.842 | 1.557
COc1nn(C)cc1C(=O)NCC1(O)CCc2ccccc2C1 (stereo not drawn) | 11.87 | -3.112
CNC(=O)COC(=O)c1ccoc1CN1c2ccccc2CC1C (stereo not drawn) | 26.04 | -1.228 & 9.955
O=C1CNc2ncnc(Nc3cnn(Cc4ccc(F)cc4)c3)c2N1 | 14.69 | -21.32
Cc1cc(S(C)(=O)=O)c(C)c(S(=O)(=O)N2CCCCCC2)c1 | 5.198 | -2.359
CC(=O)N[C@H]1CCO[C@@H](c2cccc(NC(=O)C(C)(C)C)c2)C1 | 1.767 | -13.8 & -16.65
Cc1cc(C)nc(N2CCC(OCCN3CCCCC3)C2)n1 (stereo not drawn) | 25.38 | 2.227
Cc1csc(CN2CCC[C@]3(C[C@@H](Oc4ccccn4)CO3)C2)n1.O=C(O)C(F)(F)F.O=C(O)C(F)(F)F | 17.14 | 13.13
OC1(CN2CCOC(CNc3cccnn3)C2)CCCCC1 (stereo not drawn) | 32.15 | -21.83

Repeated from the top, 9 entries:

structure	A	B
COc1cc(C(=O)NS(=O)(=O)c2cncc(Br)c2)cc(OC)c1C	8.051 & -12.79	7.427
O=C(NC1CC1)N(CCc1ccccc1)C1CCOC1 (stereo not drawn)	1.239 & -23.51	-9.446
Cc1nccn1-c1cc(CNC(=O)c2ccnc(N(C)C)c2)ccn1	20.57	3.75 & 2.439
Cc1ccc(CN2CC[C@H](c3nc4cccc(C(N)=O)c4[nH]3)C2)cc1	-34.6 & -21.05	-16.11
CC(C)(C)CCCC(=O)NS(=O)(=O)CC1CC1	-0.7754	-3.492
CC(c1cccnc1)N1CCN(CCO)CC1 (stereo not drawn)	2.301	-17.02
N#Cc1cccc(N2CC3(CCN(C(=O)C4CC=CC4)C3)CC2=O)c1 (stereo not drawn)	-29.65	-12.31
O=C1CCC(C(=O)Nc2ccc(=O)n(Cc3ccc(Cl)c(Cl)c3)c2)N1 (stereo not drawn)	-5.736	6.094
O=C(NCc1nnc2n1CCC2)c1ccc(Br)s1	-8.985	-3.622